This note sets out measurements from patent US4304833A, “Photographic products and processes employing triarylmethane compounds” (Polaroid Corporation, priority 1980, dated 1981).

A short description of this series: sensitometry of multicolor transfer images, integral film units (Table I). The conditions noted are these: integral film unit. As for the experimental part:
For purposes of illustrating the invention, multicolor photosensitive element using, as the cyan, magenta and yellow dye developers was prepared by coating a gelatin-subcoated 4 mil opaque polyethylene terephthalate film base with the following layers:
A transparent 4 mil polyethylene terephthalate film base was coated, in succession, with the following layers to form an image-receiving component:
The aqueous alkaline processing composition comprised the following in % by weight.
The photosensitive element was exposed to a multicolor stepwedge through the image-receiving element superposed on the photosensitive element, and a rupturable container of the processing composition attached. This assembly was passed between a pair of pressure rolls so that a layer approximately 0.003" thick of the processing composition was distributed between the gelatin overcoat layer 9 of the photosensitive element and the image-receiving layer 3 of the image-receiving element. The blue, green and red D log E curves of the resulting multicolor transfer image (control image) were prepared.
Test multicolor transfer images were prepared in the same manner described above using an identical processing composition and identical photosensitive and image-receiving elements except that the compounds prepared in Examples 16, 26, 27 and 39 above were incorporated in the image-receiving layer 3 at the coverages (mgs./ft.^2) designated in Table I below. The blue, green and red D log E curves of the test images were prepared, and the speed in log E units for the blue, green and red H and D curves was measured at the 0.75 reflection density intercept of the neutral density column (0.75 Neut. Exp.) for each pair of control and test multicolor transfer images. The log E speed measurements obtained at said 0.75 reflection density-exposure intercept and the maximum and minimum reflection densities (Dmax and Dmin) obtained for the blue (B), green (G), and red (R) H and D curves are set forth in Table I.
In addition to the above, test multicolor transfer images using the compounds of Examples 26 and 39 were prepared in the same manner described above, the photosensitive elements and the image-receiving elements were superimposed prior to exposure, and exposure to a multicolor stepwedge was made through the image-receiving element of the integral film unit. The log E speed measurements and the reflection densities as determined for each pair of control and test images of the integral film units also are set forth in Table I below.

In the case of `CN(C(=O)OCCS(C)(=O)=O)S(=O)(=O)c1ccccc1C(=C1C=C(C(O)(C(F)(F)F)C(F)(F)F)C(=O)c2ccccc21)c1cc2c3c(c1)CCCN3CCC2` [Example 26], where the note is “dye coverage 3 mgs./ft.^2”, the “0.75 Neut. Exp. B (log E speed)” value stood at 1.55 log E units, the “0.75 Neut. Exp. G (log E speed)” value is recorded as 1.56 log E units, the “0.75 Neut. Exp. R (log E speed)” value was found to be 1.48 log E units and the “Dmax B” value is recorded as 2.10. Besides, for the setting “dye coverage 3 mgs./ft.^2”, the “Dmax G” value came to 1.91, the “Dmax R” value stood at 2.10, the “Dmin B” value is 0.20 and the “Dmin G” value stood at 0.23. Also, for the setting “dye coverage 3 mgs./ft.^2”, the “Dmin R” value was 0.23.

As for `COCC(=O)OCc1ccccc1C(=C1C=C(OC)C(=O)C(OC)=C1)c1cc(OC)c(O)c(OC)c1` [Example 39], under “dye coverage 5 mgs./ft.^2”, the “0.75 Neut. Exp. B (log E speed)” value stood at 1.54 log E units, the “0.75 Neut. Exp. G (log E speed)” value was 1.61 log E units, the “0.75 Neut. Exp. R (log E speed)” value amounted to 1.63 log E units and the “Dmax B” value is 2.18. Besides, where the note is “dye coverage 5 mgs./ft.^2”, the “Dmax G” value was determined as 1.89, the “Dmax R” value was determined as 2.05, the “Dmin B” value is reported as 0.22 and the “Dmin G” value came to 0.22. Where the note is “dye coverage 5 mgs./ft.^2”, the “Dmin R” value is given as 0.21.
